We go through 12 substances from paper doi:10.1101/2024.12.13.628418.

Sequences of proteins named here, by UniProt entry; tags and fusion partners are left off. A change or cut given only in a name is not applied to a line headed by its entry.
UniProt A0A8I6X584: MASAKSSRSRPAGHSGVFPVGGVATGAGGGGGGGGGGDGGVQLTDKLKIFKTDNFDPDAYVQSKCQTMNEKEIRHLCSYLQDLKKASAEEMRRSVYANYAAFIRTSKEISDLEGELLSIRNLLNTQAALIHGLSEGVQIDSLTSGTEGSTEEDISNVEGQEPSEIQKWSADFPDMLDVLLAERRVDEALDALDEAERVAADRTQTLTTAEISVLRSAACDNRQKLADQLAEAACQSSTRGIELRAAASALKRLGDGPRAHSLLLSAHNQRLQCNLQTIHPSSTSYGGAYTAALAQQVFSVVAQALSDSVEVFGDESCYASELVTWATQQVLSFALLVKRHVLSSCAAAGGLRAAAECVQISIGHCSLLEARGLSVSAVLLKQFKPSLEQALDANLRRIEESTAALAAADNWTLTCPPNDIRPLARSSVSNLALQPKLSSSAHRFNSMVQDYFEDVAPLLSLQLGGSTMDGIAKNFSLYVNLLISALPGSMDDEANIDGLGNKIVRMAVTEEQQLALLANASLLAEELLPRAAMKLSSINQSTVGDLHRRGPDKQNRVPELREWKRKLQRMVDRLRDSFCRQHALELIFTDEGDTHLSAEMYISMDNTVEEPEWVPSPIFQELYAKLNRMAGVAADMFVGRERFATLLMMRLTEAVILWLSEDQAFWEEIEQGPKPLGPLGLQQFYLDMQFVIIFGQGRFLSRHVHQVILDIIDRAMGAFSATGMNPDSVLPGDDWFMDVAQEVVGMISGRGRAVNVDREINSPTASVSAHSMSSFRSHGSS
UniProt A0A8I6XA15: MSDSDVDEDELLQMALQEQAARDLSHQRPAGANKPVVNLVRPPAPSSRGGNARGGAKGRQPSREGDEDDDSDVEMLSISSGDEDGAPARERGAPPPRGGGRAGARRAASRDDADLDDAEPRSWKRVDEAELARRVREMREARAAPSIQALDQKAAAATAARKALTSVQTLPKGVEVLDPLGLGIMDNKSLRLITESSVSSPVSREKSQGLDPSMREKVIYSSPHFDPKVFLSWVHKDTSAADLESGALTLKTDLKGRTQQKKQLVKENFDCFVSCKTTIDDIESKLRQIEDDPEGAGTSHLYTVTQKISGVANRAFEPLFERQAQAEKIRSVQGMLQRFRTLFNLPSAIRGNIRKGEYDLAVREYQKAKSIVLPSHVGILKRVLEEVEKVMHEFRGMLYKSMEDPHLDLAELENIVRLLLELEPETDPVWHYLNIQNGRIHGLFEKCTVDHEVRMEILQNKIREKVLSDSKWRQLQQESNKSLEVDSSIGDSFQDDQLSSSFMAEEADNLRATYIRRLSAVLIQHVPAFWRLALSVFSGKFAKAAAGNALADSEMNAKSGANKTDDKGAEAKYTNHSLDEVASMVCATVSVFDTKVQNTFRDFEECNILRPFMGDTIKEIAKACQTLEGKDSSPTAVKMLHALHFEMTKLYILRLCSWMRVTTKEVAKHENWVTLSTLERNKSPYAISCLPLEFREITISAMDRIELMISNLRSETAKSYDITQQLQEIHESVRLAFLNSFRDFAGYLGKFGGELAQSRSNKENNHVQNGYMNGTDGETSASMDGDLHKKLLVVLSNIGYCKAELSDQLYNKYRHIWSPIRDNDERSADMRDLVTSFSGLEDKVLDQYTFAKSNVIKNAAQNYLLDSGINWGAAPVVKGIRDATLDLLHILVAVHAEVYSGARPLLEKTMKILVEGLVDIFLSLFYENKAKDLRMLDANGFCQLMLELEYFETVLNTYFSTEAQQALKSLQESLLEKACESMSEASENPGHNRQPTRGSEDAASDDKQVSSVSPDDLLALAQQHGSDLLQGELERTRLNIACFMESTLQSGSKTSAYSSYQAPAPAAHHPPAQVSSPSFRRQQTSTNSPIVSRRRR
UniProt A0A8I6YXG1: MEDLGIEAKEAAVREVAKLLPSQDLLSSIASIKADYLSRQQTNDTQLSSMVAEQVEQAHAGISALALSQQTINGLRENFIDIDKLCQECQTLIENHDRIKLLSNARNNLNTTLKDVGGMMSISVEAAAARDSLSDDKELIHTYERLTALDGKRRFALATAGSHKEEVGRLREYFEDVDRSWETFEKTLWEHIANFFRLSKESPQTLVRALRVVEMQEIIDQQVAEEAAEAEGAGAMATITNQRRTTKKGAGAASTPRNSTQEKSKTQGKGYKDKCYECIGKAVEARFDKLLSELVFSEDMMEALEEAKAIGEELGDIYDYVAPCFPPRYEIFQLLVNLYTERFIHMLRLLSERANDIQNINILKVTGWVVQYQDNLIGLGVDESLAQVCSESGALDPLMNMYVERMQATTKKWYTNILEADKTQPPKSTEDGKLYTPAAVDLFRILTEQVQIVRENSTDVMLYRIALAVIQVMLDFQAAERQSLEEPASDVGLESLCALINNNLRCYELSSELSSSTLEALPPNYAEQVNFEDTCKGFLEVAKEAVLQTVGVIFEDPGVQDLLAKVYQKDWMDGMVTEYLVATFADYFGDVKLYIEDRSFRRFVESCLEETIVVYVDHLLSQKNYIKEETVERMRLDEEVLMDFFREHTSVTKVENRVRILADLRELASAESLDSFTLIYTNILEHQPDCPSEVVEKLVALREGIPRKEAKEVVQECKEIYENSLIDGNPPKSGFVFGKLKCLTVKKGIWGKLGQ
UniProt A0A8I6ZAC4: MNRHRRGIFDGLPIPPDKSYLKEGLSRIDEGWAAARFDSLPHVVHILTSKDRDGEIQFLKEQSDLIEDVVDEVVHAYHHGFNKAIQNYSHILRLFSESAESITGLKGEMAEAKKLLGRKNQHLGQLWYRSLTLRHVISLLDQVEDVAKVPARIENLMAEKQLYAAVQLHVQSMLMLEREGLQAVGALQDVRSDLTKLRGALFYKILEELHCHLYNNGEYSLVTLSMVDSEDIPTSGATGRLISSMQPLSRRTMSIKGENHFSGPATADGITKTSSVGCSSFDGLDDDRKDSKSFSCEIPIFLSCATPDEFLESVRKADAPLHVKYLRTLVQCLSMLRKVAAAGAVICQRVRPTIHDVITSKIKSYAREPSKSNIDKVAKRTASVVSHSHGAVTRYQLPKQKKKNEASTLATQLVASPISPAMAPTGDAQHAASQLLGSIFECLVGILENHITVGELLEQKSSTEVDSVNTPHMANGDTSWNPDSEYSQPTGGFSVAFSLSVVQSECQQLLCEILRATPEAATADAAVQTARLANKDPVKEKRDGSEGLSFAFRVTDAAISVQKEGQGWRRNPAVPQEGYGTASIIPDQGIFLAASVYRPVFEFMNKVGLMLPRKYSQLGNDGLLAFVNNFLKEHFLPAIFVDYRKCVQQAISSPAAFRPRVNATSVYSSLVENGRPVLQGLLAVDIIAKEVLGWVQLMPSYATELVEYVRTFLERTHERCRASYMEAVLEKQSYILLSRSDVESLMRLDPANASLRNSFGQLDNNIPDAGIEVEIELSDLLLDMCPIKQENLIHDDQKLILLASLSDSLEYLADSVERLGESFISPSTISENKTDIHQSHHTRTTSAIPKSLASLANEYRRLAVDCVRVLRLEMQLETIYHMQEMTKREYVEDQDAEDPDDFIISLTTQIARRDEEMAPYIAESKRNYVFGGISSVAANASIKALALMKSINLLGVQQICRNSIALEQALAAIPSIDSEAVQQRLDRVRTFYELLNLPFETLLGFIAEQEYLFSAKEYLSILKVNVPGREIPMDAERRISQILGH
UniProt A0A8I7B8K2: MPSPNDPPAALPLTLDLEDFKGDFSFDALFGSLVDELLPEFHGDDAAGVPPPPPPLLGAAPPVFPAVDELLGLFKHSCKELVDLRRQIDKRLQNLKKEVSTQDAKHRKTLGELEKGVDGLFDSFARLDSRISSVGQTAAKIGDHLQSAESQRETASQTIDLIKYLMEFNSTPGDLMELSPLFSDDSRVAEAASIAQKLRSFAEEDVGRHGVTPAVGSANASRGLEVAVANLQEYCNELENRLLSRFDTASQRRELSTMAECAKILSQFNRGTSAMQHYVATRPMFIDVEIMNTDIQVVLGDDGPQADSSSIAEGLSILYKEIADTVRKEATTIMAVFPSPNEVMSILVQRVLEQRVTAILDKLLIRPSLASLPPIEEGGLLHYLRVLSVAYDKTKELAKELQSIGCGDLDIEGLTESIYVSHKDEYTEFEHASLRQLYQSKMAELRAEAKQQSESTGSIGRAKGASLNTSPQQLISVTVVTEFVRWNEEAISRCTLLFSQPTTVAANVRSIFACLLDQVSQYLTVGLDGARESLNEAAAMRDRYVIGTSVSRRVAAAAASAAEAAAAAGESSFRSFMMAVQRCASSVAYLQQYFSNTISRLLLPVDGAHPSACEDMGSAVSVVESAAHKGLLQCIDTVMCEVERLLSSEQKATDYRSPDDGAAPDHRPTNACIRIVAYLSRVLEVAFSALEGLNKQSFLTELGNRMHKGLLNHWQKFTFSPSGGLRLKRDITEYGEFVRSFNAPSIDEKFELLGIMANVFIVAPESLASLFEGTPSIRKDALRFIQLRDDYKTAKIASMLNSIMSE
UniProt A0A8I6XT81: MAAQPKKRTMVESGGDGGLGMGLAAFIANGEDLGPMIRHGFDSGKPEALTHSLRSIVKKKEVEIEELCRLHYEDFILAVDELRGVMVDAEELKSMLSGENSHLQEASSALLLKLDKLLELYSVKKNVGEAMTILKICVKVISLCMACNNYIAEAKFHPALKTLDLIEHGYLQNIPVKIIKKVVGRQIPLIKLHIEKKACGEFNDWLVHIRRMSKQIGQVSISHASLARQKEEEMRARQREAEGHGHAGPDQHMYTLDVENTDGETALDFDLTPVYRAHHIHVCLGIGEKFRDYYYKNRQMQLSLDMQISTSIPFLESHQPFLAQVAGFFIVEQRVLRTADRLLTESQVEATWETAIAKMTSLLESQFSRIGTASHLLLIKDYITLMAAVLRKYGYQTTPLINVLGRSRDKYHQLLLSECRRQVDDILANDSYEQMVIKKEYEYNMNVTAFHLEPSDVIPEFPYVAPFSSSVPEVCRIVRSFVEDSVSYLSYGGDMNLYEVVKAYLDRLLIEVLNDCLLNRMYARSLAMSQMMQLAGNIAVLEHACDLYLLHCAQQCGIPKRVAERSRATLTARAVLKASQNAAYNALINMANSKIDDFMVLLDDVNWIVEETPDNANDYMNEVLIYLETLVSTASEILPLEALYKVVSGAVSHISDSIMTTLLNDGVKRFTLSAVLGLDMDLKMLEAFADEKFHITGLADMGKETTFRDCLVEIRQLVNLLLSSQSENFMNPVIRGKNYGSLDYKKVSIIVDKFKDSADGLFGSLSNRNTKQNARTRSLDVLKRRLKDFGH
UniProt M0Z256: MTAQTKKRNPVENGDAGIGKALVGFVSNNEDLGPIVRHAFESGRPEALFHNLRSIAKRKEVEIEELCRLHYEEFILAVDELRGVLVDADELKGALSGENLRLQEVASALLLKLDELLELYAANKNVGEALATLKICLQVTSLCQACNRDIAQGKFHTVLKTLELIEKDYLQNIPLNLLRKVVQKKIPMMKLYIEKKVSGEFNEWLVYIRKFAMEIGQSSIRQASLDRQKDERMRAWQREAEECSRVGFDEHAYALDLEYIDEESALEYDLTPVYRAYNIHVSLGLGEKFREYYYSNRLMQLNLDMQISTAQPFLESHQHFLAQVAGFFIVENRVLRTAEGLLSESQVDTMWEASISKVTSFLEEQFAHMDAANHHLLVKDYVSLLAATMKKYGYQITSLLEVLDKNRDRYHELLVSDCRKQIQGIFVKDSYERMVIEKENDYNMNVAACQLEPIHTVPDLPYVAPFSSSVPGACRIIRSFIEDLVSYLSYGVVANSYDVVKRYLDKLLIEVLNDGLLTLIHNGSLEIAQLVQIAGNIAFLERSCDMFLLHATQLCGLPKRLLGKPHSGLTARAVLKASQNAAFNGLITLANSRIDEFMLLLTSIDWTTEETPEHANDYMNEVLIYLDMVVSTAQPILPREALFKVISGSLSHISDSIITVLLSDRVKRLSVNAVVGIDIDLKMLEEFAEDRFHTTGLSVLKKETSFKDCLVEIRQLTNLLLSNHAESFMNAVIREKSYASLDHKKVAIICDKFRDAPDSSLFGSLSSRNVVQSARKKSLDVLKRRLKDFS

These are yes or no findings as the source states them, for the method shown. In cells and extracts the contact can be indirect. A yes stands for co-enrichment or nearness to the bait. Other partners may have been found. For part of these data: No binding means not detected with the bait. For part of these data: Sequences can lack the tags named with a protein.

Holding throughout (assay): affinity purification with mass spectrometry
The target of assay [1] is 3×FLAG-HvEXO70A1 (stable transgenic barley) (barley (Hordeum vulgare)).
The target in assay [2] is 3×FLAG-HvEXO70FX12 (stable transgenic barley) (barley (Hordeum vulgare)).
Assay [3] deals with T1, 3×FLAG-AtEXO70A1 (transiently expressed in N. benthamiana) (A. thaliana) (UniProt Q9LZD3).
T1 sequence: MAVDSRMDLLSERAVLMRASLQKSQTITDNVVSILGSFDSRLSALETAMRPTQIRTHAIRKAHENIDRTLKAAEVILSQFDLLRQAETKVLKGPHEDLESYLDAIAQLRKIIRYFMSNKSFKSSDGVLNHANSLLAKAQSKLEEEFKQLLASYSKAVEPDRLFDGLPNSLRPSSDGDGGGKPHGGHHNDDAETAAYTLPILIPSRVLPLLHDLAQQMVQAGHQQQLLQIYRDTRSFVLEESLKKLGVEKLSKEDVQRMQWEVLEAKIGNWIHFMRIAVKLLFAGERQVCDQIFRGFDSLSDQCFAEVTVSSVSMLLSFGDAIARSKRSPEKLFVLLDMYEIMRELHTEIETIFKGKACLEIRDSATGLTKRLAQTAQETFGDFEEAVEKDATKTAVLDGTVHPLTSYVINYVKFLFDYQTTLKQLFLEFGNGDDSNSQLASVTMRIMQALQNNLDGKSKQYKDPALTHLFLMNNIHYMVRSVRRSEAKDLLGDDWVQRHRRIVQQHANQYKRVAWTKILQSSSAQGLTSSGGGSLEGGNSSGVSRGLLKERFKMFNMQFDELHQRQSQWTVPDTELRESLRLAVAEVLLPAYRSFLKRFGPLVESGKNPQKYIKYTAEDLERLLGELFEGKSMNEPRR

The target in assay [4] is T2, AtLTI6B-3×FLAG (transiently expressed in N. benthamiana) (A. thaliana) (UniProt Q9ZNS6).
T2 sequence: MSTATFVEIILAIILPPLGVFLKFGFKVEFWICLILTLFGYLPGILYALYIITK

For HvEXO84B-1 (from UniProt A0A8I6XUP7), the binding result in assay [1] was “binds”; in assay [2] it was “no binding”.
For HvEXO84B-2 (from UniProt A0A8I6X584), in that order: “binds” and “no binding”.
Consider HvSEC5B (from UniProt A0A8I6XA15), for which the binding result in assay [1] is reported as “binds”; in assay [2] it was “no binding”.
On to HvSEC6 (from UniProt A0A8I6YXG1), for which the binding entry in assay [1] was “binds”; in assay [2], “no binding”.
Consider HvSEC8 (from UniProt A0A8I6ZAC4), for which the binding entry is recorded as “binds” in assay [1] and “no binding” in assay [2].
For HvSEC10 (from UniProt A0A8I7B8K2), in that order: “binds” and “no binding”.
On the same counts, the results for HvSEC15A-1 (from UniProt A0A8I6XT81) are “binds” and “no binding”.
On the same counts, the results for HvSEC15A-2 (from UniProt M0Z256) are “binds” and “no binding”.
For HvSEC15B (from UniProt F2DPA5), the binding entry in assay [1] is on record as “binds”; in assay [2], “no binding”.
In the case of “NbEXO84B (N. benthamiana (endogenous in leaves))”, the binding entry in assay [3] is listed as “binds”; in assay [4], “no binding”.
For “NbSEC10 (N. benthamiana (endogenous in leaves))”, in that order: “binds” and “no binding”.
On the same counts, the results for “NbSEC15B (N. benthamiana (endogenous in leaves))” are “binds” and “no binding”.
